Results from US5352665A, “Method of treating disease caused by the infection of virus” (Mitsui Toatsu Chemicals, Incorporated, priority 1987, dated 1994).
Part of at least one peptide drawing is inferred or uncertain, most often the ends. Square brackets hold non-standard residues; d marks the D form. Peptide text beside a SMILES is read from it. pGlu = O=C1CC[C@@H](C(=O)O)N1

Legend:
REO virus type II = assay: Jerne plaque assay (anti-SRBC hemolysis plaques) in new-born NC mice infected with REO virus; type: in vivo; details: FTS 10 μg/mouse versus MDP 20 μg/mouse
Method: Two weeks after the infection of 10^5 PFU REO virus, sheep red blood cells (referred to hereinafter simply as SRBC) was intraperitoneally administered and 4 days after the administration, the number of hemolysis plaques was measured by way of Jerne plaque assay as a production amount of antibody-forming cells against SRBC. The number of hemolysis plaques was 15±2 per 10^6 spleen cells in a group not infected with REO virus, while that was 2.8±1.6 in an infected group, thus showing a remarkable immunity inhibitory state. In compliance with this, atrophy of thymus and decrease in the number of thymic cortex lymphocytes were observed.
On the other hand, the effective ingredient of this invention dissolved in physiological saline was administered in an amount of 10 μg/mouse simultaneously with SRBC to mice, and 4 days after the administration, the number of hemolysis plaques was measured whereupon the number was 22±5. […] In a group to which muramyl dipeptide was administered in an amount of 20 μg/mouse together with Freund incomplete adjuvant, the number of hemolysis plaques was 11±2. […]
Mice infected with virus was immunized at the same time with SRBC and an immunostimulant, and 4 days after the immunization, the number of hemolysis plaques was measured by Jerne plaque assay. […]

[1] = test system: human T lymphocytes infected with HTLV-I and HTLV-II; assay: Coexistence with human T lymphocytes infected with HTLV-I and HTLV-II; type: cell-based
[2] = test system: MT-4 infected with HTLV-III; assay: Coexistence with MT-4 infected with HTLV-III; type: cell-based
[3] = test system: rotavirus (Nebraska strain) and monkey rotavirus SA 11 strain; assay: Infection of cattle with rotavirus; type: in vivo
REO virus = assay: Number of splenic cells (lymphocytes and macrophages) in REO virus-infected new-born ICR mice; type: in vivo, mouse
[4] = test system: pig Oasky's disease virus (Yamagata S81 strain); assay: NC or BALB/c mice infected with pig Oasky's disease virus; type: in vivo, mouse; details: administered the precedent day of the infection or 2-3 times before and after the infection

C[C@H](NC(=O)[C@@H]1CCC(=O)N1)C(=O)N[C@@H](CCCCN)C(=O)N[C@@H](CO)C(=O)N[C@@H](CCC(N)=O)C(=O)NCC(=O)NCC(=O)N[C@@H](CO)C(=O)N[C@@H](CC(N)=O)C(=O)O [FTS, pGlu-Ala-Lys-Ser-Gln-Gly-Gly-Ser-Asn] ([pGlu]AKSQGGSN-OH)
therapeutic effect relative to MDP (REO virus type II): 2 times
action on infected cells and propagation of virus [1]: an inhibitory action to destroy of cells, a cells-stabilizing action and an inhibitory action to propagation of virus
action on infected cells and propagation of virus [2]: an inhibitory action to destroy of cells, a cells-stabilizing action and an inhibitory action to propagation of virus
inhibition of death/extension of life span, prevention and remedy of infection ([3]; bovine, in vivo): effective for inhibition of death/extension of life span and for prevention and remedy of infection diseases
vaccination effect ([3]; conjoint use with a rotavirus vaccine): serves to enhance the vaccination effect
Splenic cells/(mice) (REO virus; TABLE A: FTS 10 μg 2 weeks after the infection, not infected 5.9 ± 0.8, infected untreated 9.2 ± 1.1): 6.4 ± 0.5 ×10^7
Splenic cells/(mice) (REO virus; TABLE B: FTS 0.1 μg 4 weeks after the infection): 28.2 ± 1.5 ×10^7
Splenic cells/(mice) (REO virus; TABLE B: FTS 1 μg 4 weeks after the infection): 17.8 ± 1.0 ×10^7
Splenic cells/(mice) (REO virus; TABLE B: FTS 10 μg 4 weeks after the infection, not infected 16.6 ± 1.2, infected untreated 27.2 ± 0.6): 14.0 ± 1.5 ×10^7
symptom of the nervous system and the skin by disease [4]: obviously improved
average day of death ([4]; subcutaneous innoculation of virus): extended
